Some of these results come from one statement about several compounds together.
System: methicillin susceptible S. aureus (ATCC 29213)
Test: Bacterial cytological profiling at pH 4, 5.5, 7 (Example 7), S. aureus
Assay type: cell-based
Conditions: pH 5.5 and 7; 125 mg/mL and 250 mg/mL
Experimental: This bacterial cytological profiling (BCP) investigation uses methods and materials described previously by Nonejuie, P., Burkart, M., Poglianoa, K., Pogiano, J. (2013). Bacterial cytological profiling rapidly identifies the cellular pathways targeted by antibacterial molecules. Proc. Natl. Acad. Sci. U.S.A. 110(40):16169-16174. doi: 10.1073/pnas.1311066110.
For viable cell counts, cells are grown to OD600≈0.4 and diluted 1:1 into buffered or unbuffered media containing various compound concentrations. Samples are then collected and serially diluted (1:10) on a 96 well plate. Five microliters from each well are spotted on LB plates, incubated at 30° C., and viable cells are counted the next day.
Samples are collected at 10, 30, 120, and 240 min of exposure for viable cell count and imaging. For imaging, E. coli and S. aureus 200 μL of treated cells per time point are stained with 0.8 μg/mL FM4-64, 1.5 μg/mL DAPI, and 0.4 μM SYTOXGreen (Molecular Probes/Invitrogen). P. aeruginosa samples are stained 0.4 μM SYTOX Green, 28 μg/mL DAPI, and 1 μg/mL FM 4-64. Cells are transferred to an agarose pad (20% LB, 1% agarose) for imaging.
For Nu-3 and Nu-8 stocks (at pH 4, 5.5 and 7), stock concentration is 500 mg/mL. For pH 4, the stocks are prepared by dissolving Nu-3 in 25 mM citrate buffer and Nu-8 in 350 mM citric acid. […]

Question: `CCCCOP(=O)(O)OC[C@H]1O[C@@H](n2cc(C)c(=O)[nH]c2=O)C[C@@H]1OP(=O)(O)OCCCC` [Nu-3] was tested. Which cell permeability did it give?
Answer: < 5%
